This passage reports binding results from patent publication US20090325869A1 (CHILDREN S HOSPITAL AND RESEARCH CENTER OAKLAND, published 2009).

Test [1] deals with T1, Ferritin H (frog), wild type, protein nanocage (frog) (UniProt P07229).
T1 sequence (looked up): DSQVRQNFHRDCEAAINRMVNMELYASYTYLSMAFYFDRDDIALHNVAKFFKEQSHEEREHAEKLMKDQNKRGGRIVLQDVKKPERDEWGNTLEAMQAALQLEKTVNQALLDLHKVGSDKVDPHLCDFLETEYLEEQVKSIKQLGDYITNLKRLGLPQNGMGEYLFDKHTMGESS
Put plainly: phage display selection on ferritin H (frog) as adsorbant.

Test [2] has as its target T2, Ferritin H-L134P (frog), pore gate mutant with unfolded pores (frog) (UniProt P07229).
T2 sequence (looked up): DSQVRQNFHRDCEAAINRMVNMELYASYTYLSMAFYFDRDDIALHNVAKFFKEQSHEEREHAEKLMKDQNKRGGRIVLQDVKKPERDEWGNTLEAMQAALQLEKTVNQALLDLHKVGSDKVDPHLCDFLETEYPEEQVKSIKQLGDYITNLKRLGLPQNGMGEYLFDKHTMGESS
Put plainly: phage display, elution from ferritin H with ferritin H-L134P (peptide group A).

In test [3] the target is T1, Ferritin H (frog), wild type, protein nanocage (frog). Kind of test: synthetic undecapeptide mixed with mineralized ferritin before demineralization.
Test [4] has the same target. Put plainly: phage display, elution with ferritin H (peptide group B).

These are yes or no findings as the source states them, for the method shown. Some binding calls cover weakened binding; strength is not graded here.

B1: Pep1 (heptapeptide) NTYYFPK, phage-displayed (peptide)
peptide: NTYYFPK
On to B1, for which the binding entry in test [1] and in test [2] was “binds” in each case.

B2: Peptide 1, synthetic undecapeptide HSNTYYFPKGG (peptide)
peptide: HSNTYYFPKGG
Turning to B2, the binding result in test [3] is given as “binds”.

B3: Pep4 (heptapeptide) HHALDGS, phage-displayed (peptide)
peptide: HHALDGS
Regarding B3, in test [4], the binding entry is reported as “binds”.

B4: Peptide 2 (heptapeptide) SHTSPSI, phage-displayed (peptide)
peptide: SHTSPSI
B4: the binding entry in test [1] and in test [2] was “binds” each time.

B5: Peptide 3 (heptapeptide) GDWYLGD, phage-displayed (peptide)
peptide: GDWYLGD
As to B5, the binding result in test [4] is “binds”.

B6: Peptide 5 (heptapeptide) HHALGGS, phage-displayed (peptide)
peptide: HHALGGS
On to B6, for which the binding entry in test [4] is “binds”.
